Assay results taken from patent US9820488B2, “Compounds for the control of endoparasites” (Elanco Tiergesundheit AG, priority 2013, dated 2017).
Some entries share one result that the patent states for a list of compounds. For at least one compound, name, drawing or mass did not settle the structure.

Test system: Dirofilaria immitis microfilariae
Assay: Dirofilaria immitis Microfilaria Assay
Type: cell-based

Row | Compound | efficacy (percent reduced motility of microfilariae)
1 | N#Cc1ccc(NC2CCN(c3cc(C(=O)N4CCN(c5ccc(C#N)c(C(F)(F)F)c5)CC4)ccn3)CC2)cc1C(F)(F)F [Compound 33] | above 50%
2 | CC(C)(C)OC(=O)NC1CCN(c2cc(C(=O)NC3CCN(c4ccc(C#N)c(C(F)(F)F)c4)CC3)ccn2)CC1 [Compound 45] | above 50%
